The record followed here is patent publication US20130203680A1 (ENDOCYTE, INC., priority 2010, published 2013).

For part of these data: Strings that start with PEPTIDE1 are HELM notation: dots part the residues, brackets hold end groups and non-standard residues.

Data set [1] in a line: general procedure: Fmoc solid-phase peptide synthesis; H-Cys(4-methoxytrityl)-2-chlorotrityl-Resin (loading 0.56 mmol/g); Fmoc-AA-Wang resin in general scheme; PyBOP, DIPEA. Particulars: conjugation step, over 2 steps from everolimus.
Data set [2] is described as follows: general procedure: Fmoc solid-phase peptide synthesis; H-Cys(4-methoxytrityl)-2-chlorotrityl-Resin; PyBOP, DIPEA. Particulars: whole synthesis, scale 0.1 mmol.

Take “PEPTIDE1{[Pte].[gGlu].[SacGlu].E.[SacGlu].E.[SacGlu].C}|CHEM1{[SEtOCO-Everolimus]}$PEPTIDE1,CHEM1,8:R3-1:R1$$$V2.0”: in data set [1], the conjugation yield stood at 50% yield. Regarding “Tetra-Saccharoglutamate-Bis-aGlu-Folate Spacer EC0491”, in data set [2], the isolated mass entry was “˜100 mg” and the isolated yield stood at 51%.
